Literature values, collected in patent US9382266B2 (BUCK INSTITUTE FOR RESEARCH ON AGING, priority 2011, dated 2016).
For some of these results: At least one structure is not confirmed: it was looked up by name or label, or the drawing left a doubt. Some entries share one result that the patent states for a list of compounds.

Key:
patients with SLE = conditions: cited from earlier work
patients with MS = conditions: over 2 years; cited from earlier work
[1] = 9 SLE patients, last follow up after 6-48 months of treatment

Compound | urinary protein levels (patients with SLE; 3 patients with cyclophosphamide-treated lupus nephritis, during rapamycin treatment) | mean±SEM reduction in the daily dosage of prednisone (patients with SLE; 7 prescribed patients, after treatment with rapamycin) | SLEDAI reduction (patients with SLE; [1]) | mean±SEM reduction in the BILAG score compared with pretreatment (patients with SLE; [1]) | mean SLEDAI score (patients with SLE; patients who had received 6-48 months of rapamycin treatment (control SLE patients 3.14)) | mean BILAG score (patients with SLE; patients who had received 6-48 months of rapamycin treatment (control SLE patients 5.00)) | reduction in the relapse rate compared with placebo (patients with MS)
CO[C@H]1C[C@@H]2CC[C@@H](C)[C@@](O)(O2)C(=O)C(=O)N2CCCC[C@H]2C(=O)O[C@H]([C@H](C)C[C@@H]2CC[C@@H](O)[C@H](OC)C2)CC(=O)[C@H](C)/C=C(\C)[C@@H](O)[C@@H](OC)C(=O)[C@H](C)C[C@H](C)/C=C/C=C/C=C/1C [Rapamycin] | < 300 mg/24 hours | 26.4 ± 6.7 mg | 5.3±0.8 | 1.93±0.9 | 1.55 | 2.11 | –
glatiramer acetate | – | – | – | – | – | – | 30-35%
